# Source: the supplement of paper PMC8728848
# The list shows a part of the results.
# B1: PX14351B-bth-512-36-512 (Bacteroides thetaiotaomicron) (protein)
# chain: ASETQQWKTLEDTRSALMGVYGLTRAALADNNTHWICGDLRKGDFTVYKRSDLQAVSDNELNKPYDLLKKVSNWRRFYAVINAASVFMEKAPRTVELDRSYSEQNLKYDIAQVRALRAFAYFYMVRIWGDVPLVTYSYDNGTFPSMPRTDAQTVLSYAKAELLTAIEDLPYQYGTQTNLYYGSYGAQWQGKLFNKLSAYSVLAHICAWQGNYAEAETYSAFIIDHASEINAKYTSIADLTSETGLFYSNASVKGSRILGFNFAHNDNEATQSGHLEQLTLAYPLVQKSYPEIYISKDSLFSIFTNFDDLRFGIIDTIKYSSYYVQNLNEETPVFSKIKIIQDGSAKDNDFGVFGSSIVFTRLEDITLLRAEALCALNRSTEAVSYLNMIRTNRGLREVSFKKDFGNNRESLIAEIFEERRRELMGEGWRWYDLVRRQKLMKDNEAFLRLISSGGIYWPVSEDIITANSQIEQNEFWK
# How the values were obtained:
# Test in all cases: glycan array binding signal (z-score within array); higher = stronger binding
# Conditions in all cases: glycan notation: IUPAC condensed, linker removed
# [1] = target: Neu5Ac(a2-3)Gal(b1-4)GlcNAc(b1-2)Man(a1-3)[Neu5Ac(a2-3)Gal(b1-4)GlcNAc(b1-2)Man(a1-6)]Man(b1-4)GlcNAc(b1-4)[Fuc(a1-6)]GlcNAc
# In short: (§1)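 Glycan array data were curated from 3228 arrays in the Consortium for Functional Glycomics database and kept only where the protein sequence was available. Glycan names were converted to IUPAC-condensed notation, and columns mapping to the same glycan were averaged. The binding signal is a within-array Z-score, averaged across arrays of the same protein sequence at different concentrations or buffers and across linkers. Negative Z-scores can be read as non-binding.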
# [2] = target: Neu5Ac(a2-3)Gal(b1-4)GlcNAc(b1-2)Man(a1-3)[Neu5Ac(a2-6)Gal(b1-4)GlcNAc(b1-2)Man(a1-6)]Man(b1-4)GlcNAc(b1-4)GlcNAc
# In short: as §1
# [3] = target: Neu5Ac(a2-3)Gal(b1-4)GlcNAc(b1-2)[Neu5Ac(a2-3)Gal(b1-4)GlcNAc(b1-4)]Man(a1-3)[GlcNAc(b1-4)][Neu5Ac(a2-3)Gal(b1-4)GlcNAc(b1-2)[Neu5Ac(a2-3)Gal(b1-4)GlcNAc(b1-6)]Man(a1-6)]Man(b1-4)GlcNAc(b1-4)GlcNAc
# In short: as §1
# [4] = target: Neu5Ac(a2-3)Gal(b1-4)GlcNAc(b1-2)[Neu5Ac(a2-3)Gal(b1-4)GlcNAc(b1-4)]Man(a1-3)[GlcNAc(b1-4)][Neu5Ac(a2-3)Gal(b1-4)GlcNAc(b1-4)Man(a1-6)]Man(b1-4)GlcNAc(b1-4)GlcNAc
# In short: as §1
# [5] = target: Neu5Ac(a2-3)Gal(b1-4)GlcNAc(b1-2)[Neu5Ac(a2-3)Gal(b1-4)GlcNAc(b1-6)]Man(a1-6)[Neu5Ac(a2-3)Gal(b1-4)GlcNAc(b1-2)Man(a1-3)]Man(b1-4)GlcNAc(b1-4)GlcNAc
# In short: as §1
# [6] = target: Neu5Ac(a2-3)Gal(b1-4)GlcNAc(b1-2)[Neu5Ac(a2-3)Gal(b1-4)GlcNAc(b1-6)]Man(a1-6)[Neu5Ac(a2-3)Gal(b1-4)GlcNAc(b1-2)Man(a1-3)][GlcNAc(b1-4)]Man(b1-4)GlcNAc(b1-4)GlcNAc
# In short: as §1
# [7] = target: Neu5Ac(a2-3)Gal(b1-4)GlcNAc(b1-3)Gal
# In short: as §1
# [8] = target: Neu5Ac(a2-3)Gal(b1-4)GlcNAc(b1-3)Gal(b1-3)GlcNAc
# In short: as §1
# [9] = target: Neu5Ac(a2-3)Gal(b1-4)GlcNAc(b1-3)Gal(b1-4)GlcNAc(b1-2)Man(a1-3)[Neu5Ac(a2-3)Gal(b1-4)GlcNAc(b1-3)Gal(b1-4)GlcNAc(b1-2)Man(a1-6)]Man(b1-4)GlcNAc(b1-4)GlcNAc
# In short: as §1
# [10] = target: Neu5Ac(a2-3)Gal(b1-4)GlcNAc(b1-3)Gal(b1-4)GlcNAc(b1-3)Gal(b1-4)GlcNAc
# In short: as §1
# [11] = target: Neu5Ac(a2-3)Gal(b1-4)GlcNAc(b1-3)Gal(b1-4)GlcNAc(b1-3)Gal(b1-4)GlcNAc(b1-2)Man(a1-3)[Neu5Ac(a2-3)Gal(b1-4)GlcNAc(b1-3)Gal(b1-4)GlcNAc(b1-3)Gal(b1-4)GlcNAc(b1-2)Man(a1-6)]GalNAc
# In short: as §1
# [12] = target: Neu5Ac(a2-3)Gal(b1-4)GlcNAc(b1-3)Gal(b1-4)GlcNAc(b1-3)GalNAc
# In short: as §1
# [13] = target: Neu5Ac(a2-3)Gal(b1-4)GlcNAc(b1-3)Gal(b1-4)GlcNAc(b1-3)[Neu5Ac(a2-3)Gal(b1-4)GlcNAc(b1-3)Gal(b1-4)GlcNAc(b1-6)]GalNAc
# In short: as §1
# [14] = target: Neu5Ac(a2-3)Gal(b1-4)GlcNAc(b1-3)Gal(b1-4)[Fuc(a1-3)]GlcNAc
# In short: as §1
# [15] = target: Neu5Ac(a2-3)Gal(b1-4)GlcNAc(b1-3)GalNAc
# In short: as §1
# [16] = target: Neu5Ac(a2-3)Gal(b1-4)GlcNAc(b1-3)[Neu5Ac(a2-3)Gal(b1-4)GlcNAc(b1-6)]GalNAc
# In short: as §1
# [17] = target: Neu5Ac(a2-3)Gal(b1-4)GlcNAc(b1-6)GalNAc
# In short: as §1
# [18] = target: Neu5Ac(a2-3)Gal(b1-4)GlcNAc(b1-6)[Gal(b1-3)]GalNAc
# In short: as §1
# [19] = target: Neu5Ac(a2-3)Gal(b1-4)GlcNAc(b1-6)[Neu5Ac(a2-3)Gal(b1-3)]GalNAc
# In short: as §1
# [20] = target: Neu5Ac(a2-3)Gal(b1-4)GlcNAc6S
# In short: as §1
# [21] = target: Neu5Ac(a2-3)Gal(b1-4)[Fuc(a1-3)]GlcNAc
# In short: as §1
# [22] = target: Neu5Ac(a2-3)Gal(b1-4)[Fuc(a1-3)]GlcNAc(b1-2)Man
# In short: as §1
# [23] = target: Neu5Ac(a2-3)Gal(b1-4)[Fuc(a1-3)]GlcNAc(b1-3)Gal
# In short: as §1
# [24] = target: Neu5Ac(a2-3)Gal(b1-4)[Fuc(a1-3)]GlcNAc(b1-3)Gal(b1-4)GlcNAc
# In short: as §1
# [25] = target: Neu5Ac(a2-3)Gal(b1-4)[Fuc(a1-3)]GlcNAc(b1-3)Gal(b1-4)[Fuc(a1-3)]GlcNAc(b1-3)Gal(b1-4)[Fuc(a1-3)]GlcNAc
# In short: as §1
# [26] = target: Neu5Ac(a2-3)Gal(b1-4)[Fuc(a1-3)]GlcNAc(b1-3)GalNAc
# In short: as §1
# [27] = target: Neu5Ac(a2-3)Gal(b1-4)[Fuc(a1-3)]GlcNAc(b1-6)[Gal(b1-3)]GalNAc
# In short: as §1
# [28] = target: Neu5Ac(a2-3)Gal(b1-4)[Fuc(a1-3)]GlcNAc(b1-6)[Neu5Ac(a2-3)Gal(b1-3)]GalNAc
# In short: as §1
# [29] = target: Neu5Ac(a2-3)Gal(b1-4)[Fuc(a1-3)]GlcNAc6S
# In short: as §1
# [30] = target: Neu5Ac(a2-3)Gal6S(b1-4)GlcNAc
# In short: as §1
# [31] = target: Neu5Ac(a2-3)Gal6S(b1-4)[Fuc(a1-3)]GlcNAc
# In short: as §1
# [32] = target: Neu5Ac(a2-3)GalNAc
# In short: as §1
# [33] = target: Neu5Ac(a2-3)GalNAc(b1-4)GlcNAc
# In short: as §1
# [34] = target: Neu5Ac(a2-3)[GalNAc(b1-4)]Gal(b1-4)Glc
# In short: as §1
binder,measurement,setting,value
B1,glycan array binding signal (z-score),[1],-0.243
same,glycan array binding signal (z-score),[2],-0.254
same,glycan array binding signal (z-score),[3],-0.24
same,glycan array binding signal (z-score),[4],-0.26
same,glycan array binding signal (z-score),[5],-0.204
same,glycan array binding signal (z-score),[6],-0.341
same,glycan array binding signal (z-score),[7],-0.287
same,glycan array binding signal (z-score),[8],-0.352
same,glycan array binding signal (z-score),[9],-0.19
same,glycan array binding signal (z-score),[10],0.041
same,glycan array binding signal (z-score),[11],-0.12
same,glycan array binding signal (z-score),[12],0.553
same,glycan array binding signal (z-score),[13],-0.084
same,glycan array binding signal (z-score),[14],-0.061
same,glycan array binding signal (z-score),[15],-0.19
same,glycan array binding signal (z-score),[16],-0.355
same,glycan array binding signal (z-score),[17],-0.12
same,glycan array binding signal (z-score),[18],-0.023
same,glycan array binding signal (z-score),[19],-0.116
same,glycan array binding signal (z-score),[20],-0.307
same,glycan array binding signal (z-score),[21],-0.359
same,glycan array binding signal (z-score),[22],-0.201
same,glycan array binding signal (z-score),[23],-0.219
same,glycan array binding signal (z-score),[24],-0.142
same,glycan array binding signal (z-score),[25],-0.084
same,glycan array binding signal (z-score),[26],0.129
same,glycan array binding signal (z-score),[27],0.021
same,glycan array binding signal (z-score),[28],0.196
same,glycan array binding signal (z-score),[29],-0.278
same,glycan array binding signal (z-score),[30],-0.172
same,glycan array binding signal (z-score),[31],-0.349
same,glycan array binding signal (z-score),[32],-0.418
same,glycan array binding signal (z-score),[33],-0.276
same,glycan array binding signal (z-score),[34],-0.198

# An excerpt of these results, with bars between the fields.
binder | measurement | setting | value
B1 | glycan array binding signal (z-score) | [5] | -0.204
same | glycan array binding signal (z-score) | [6] | -0.341
same | glycan array binding signal (z-score) | [7] | -0.287
same | glycan array binding signal (z-score) | [8] | -0.352
same | glycan array binding signal (z-score) | [9] | -0.19
same | glycan array binding signal (z-score) | [10] | 0.041
same | glycan array binding signal (z-score) | [11] | -0.12
same | glycan array binding signal (z-score) | [12] | 0.553
same | glycan array binding signal (z-score) | [13] | -0.084
same | glycan array binding signal (z-score) | [14] | -0.061
